Values from PubChem BioAssay AID504793 (Drosophila RNAi Screening Center, 2011)
In all, the deposit lists about 23,000 reagents; this is a random part of those with a known target gene and a result. Of all reagents, 62 (0.27%) got an active call. 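Calls come from follow-up tests whose scores are not deposited, so confirmed genes may have low counts here; counts are not normalised per plate.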 Raw values vary from plate to plate and are shown uncorrected. Names joined by + are all predicted targets of the reagent.

- Screen: 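Knock-downs allowing continued mitosis even though DNA is damaged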 (primary screen)
- Cell system: Drosophila S2R+ cells
- Knock-down reagent: long dsRNA against Drosophila genes, about 0.25 µg dsRNA per well
- Time to read-out: 4 days of dsRNA, then 4 hours of drug before read-out
- Treatment: doxorubicin 0.5 µM for 4 hours to cause double-strand breaks, in cells also given a low, harmless dose of dsRNA against nbs to sensitise the assay
- Measured: 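Per-well count of mitotic cells stained for phospho-histone H3 after doxorubicin exposure, used as mitotic index; counts are raw and not normalised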
- Direction: mitotic cells: higher = more cells in mitosis, weaker G2 arrest
- Hit rule: 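Genes are called active only when high mitotic counts were reproduced with independent dsRNAs and mitosis was checked for delay without damage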
- Meaning of the calls: active = confirmed in follow-up tests; inactive = not confirmed

{"gene knocked down":"Ugt317A1","DRSC id":"DRSC04470","mitotic cells, replicate 1":8,"activity call":"inactive"}
{"gene knocked down":"CG7650","DRSC id":"DRSC10898","mitotic cells, replicate 1":5,"activity call":"inactive"}
{"gene knocked down":"CG7650","DRSC id":"DRSC29711","mitotic cells, replicate 1":4,"activity call":"inactive"}
{"gene knocked down":"hgo","DRSC id":"DRSC03544","mitotic cells, replicate 1":6,"activity call":"inactive"}
{"gene knocked down":"Jhbp15","DRSC id":"DRSC15217","mitotic cells, replicate 1":7,"activity call":"inactive"}
{"gene knocked down":"CG10063","DRSC id":"DRSC09688","mitotic cells, replicate 1":1,"activity call":"inactive"}
{"gene knocked down":"CG10063","DRSC id":"DRSC28872","mitotic cells, replicate 1":10,"activity call":"inactive"}
{"gene knocked down":"CG31249","DRSC id":"DRSC16248","mitotic cells, replicate 1":8,"activity call":"inactive"}
{"gene knocked down":"CG33271","DRSC id":"DRSC10583","mitotic cells, replicate 1":4,"activity call":"inactive"}
{"gene knocked down":"CG5078","DRSC id":"DRSC11762","mitotic cells, replicate 1":5,"activity call":"inactive"}
{"gene knocked down":"CG1354","DRSC id":"DRSC17902","mitotic cells, replicate 1":7,"activity call":"inactive"}
{"gene knocked down":"CG17786","DRSC id":"DRSC15270","mitotic cells, replicate 1":20,"activity call":"inactive"}
{"gene knocked down":"CG17786","DRSC id":"DRSC25378","mitotic cells, replicate 1":6,"activity call":"inactive"}
{"gene knocked down":"CG8230","DRSC id":"DRSC05931","mitotic cells, replicate 1":7,"activity call":"inactive"}
{"gene knocked down":"Obp73a","DRSC id":"DRSC09907","mitotic cells, replicate 1":8,"activity call":"inactive"}
{"gene knocked down":"G9a","DRSC id":"DRSC18619","activity call":"inactive"}
{"gene knocked down":"park + Targ3","DRSC id":"DRSC11617","mitotic cells, replicate 1":6,"activity call":"inactive"}
{"gene knocked down":"ssp3","DRSC id":"DRSC02669","mitotic cells, replicate 1":11,"activity call":"inactive"}
{"gene knocked down":"ssp3","DRSC id":"DRSC02670","mitotic cells, replicate 1":1,"activity call":"inactive"}
{"gene knocked down":"ssp3","DRSC id":"DRSC27298","mitotic cells, replicate 1":7,"activity call":"inactive"}
{"gene knocked down":"CG13068","DRSC id":"DRSC09951","mitotic cells, replicate 1":8,"activity call":"inactive"}
{"gene knocked down":"CG13068","DRSC id":"DRSC27150","mitotic cells, replicate 1":10,"activity call":"inactive"}
{"gene knocked down":"Sf3a2","DRSC id":"DRSC09801","mitotic cells, replicate 1":6,"activity call":"inactive"}
{"gene knocked down":"ppk25","DRSC id":"DRSC04973","mitotic cells, replicate 1":1,"activity call":"inactive"}
{"gene knocked down":"ppk25","DRSC id":"DRSC27513","mitotic cells, replicate 1":5,"activity call":"inactive"}
{"gene knocked down":"Alg2","DRSC id":"DRSC08298","mitotic cells, replicate 1":11,"activity call":"inactive"}
{"gene knocked down":"CG14630","DRSC id":"DRSC18166","mitotic cells, replicate 1":6,"activity call":"inactive"}
{"gene knocked down":"CG14630","DRSC id":"DRSC18653","mitotic cells, replicate 1":12,"activity call":"inactive"}
{"gene knocked down":"CG13070","DRSC id":"DRSC09953","mitotic cells, replicate 1":13,"activity call":"inactive"}
{"gene knocked down":"CG9411","DRSC id":"DRSC20184","mitotic cells, replicate 1":5,"activity call":"inactive"}
{"gene knocked down":"CG9411","DRSC id":"DRSC26840","mitotic cells, replicate 1":4,"activity call":"inactive"}
{"gene knocked down":"CG6867","DRSC id":"DRSC20013","mitotic cells, replicate 1":9,"activity call":"inactive"}
{"gene knocked down":"CG6867","DRSC id":"DRSC25889","mitotic cells, replicate 1":9,"activity call":"inactive"}
{"gene knocked down":"CG6067","DRSC id":"DRSC18399","mitotic cells, replicate 1":10,"activity call":"inactive"}
{"gene knocked down":"CG42240","DRSC id":"DRSC18097","mitotic cells, replicate 1":8,"activity call":"inactive"}
{"gene knocked down":"CG42240","DRSC id":"DRSC30017","mitotic cells, replicate 1":9,"activity call":"inactive"}
{"gene knocked down":"Vha16-5","DRSC id":"DRSC02986","mitotic cells, replicate 1":3,"activity call":"inactive"}
{"gene knocked down":"Mcm2","DRSC id":"DRSC16734","mitotic cells, replicate 1":2,"activity call":"inactive"}
{"gene knocked down":"Mcm2","DRSC id":"DRSC26612","mitotic cells, replicate 1":8,"activity call":"inactive"}
{"gene knocked down":"kappaB-Ras + CG30503","DRSC id":"DRSC06619","mitotic cells, replicate 1":10,"activity call":"inactive"}
{"gene knocked down":"kappaB-Ras + CG30503","DRSC id":"DRSC07636","mitotic cells, replicate 1":4,"activity call":"inactive"}
{"gene knocked down":"kappaB-Ras + CG30503","DRSC id":"DRSC25537","mitotic cells, replicate 1":9,"activity call":"inactive"}
{"gene knocked down":"Rad9","DRSC id":"DRSC11263","mitotic cells, replicate 1":9,"activity call":"inactive"}

A few values from the list.
Mcm2 [DRSC26612], activity call = inactive
ssp3 [DRSC27298], activity call: inactive
Value of Jhbp15 [DRSC15217] under “mitotic cells, replicate 1”: 7
For “mitotic cells, replicate 1”, CG42240 [DRSC18097] has 8
For “mitotic cells, replicate 1”, CG13068 [DRSC27150] has 10
CG33271 [DRSC10583], activity call → inactive
